Data as given in US9040725B2, “Benzocycloheptane and benzoxepine derivatives” (Janssen Pharmaceutica NV, priority 2008, dated 2015).
The match of structure and compound is tentative.

By UniProt entry, the sequences of proteins in these tests, tags left out.
UniProt Q92847, whole entry: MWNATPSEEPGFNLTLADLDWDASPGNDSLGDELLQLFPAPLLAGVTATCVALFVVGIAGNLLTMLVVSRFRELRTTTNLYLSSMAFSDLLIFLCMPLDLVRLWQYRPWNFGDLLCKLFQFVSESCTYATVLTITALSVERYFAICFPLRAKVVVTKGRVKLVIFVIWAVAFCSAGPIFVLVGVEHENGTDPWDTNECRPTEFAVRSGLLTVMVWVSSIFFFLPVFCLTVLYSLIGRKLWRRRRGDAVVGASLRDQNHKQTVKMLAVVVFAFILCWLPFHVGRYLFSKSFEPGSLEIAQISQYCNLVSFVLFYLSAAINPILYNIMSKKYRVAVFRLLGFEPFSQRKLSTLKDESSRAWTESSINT

Columns and labels:
[1] = molecular target: GHS1A-receptor (Homo sapiens, UniProt Q92847); test: Ghrelin-agonism in HEK293 cells (intracellular calcium, FLIPR); format: cell-based; details: HEK293 cells permanently transfected with GHS1A-receptor, calcium fluorescence (fluo-4 or Kit-3), EC50 in M, tested form: oxalate
[2] = system: NMRI-mice; test: Acceleration of gastric emptying and small intestinal propulsion in NMRI-mice; format: in vivo; details: lowest active dose, subcutaneous, 30 min before phenol red test meal, tested form: oxalate
Method: Male NMRI-mice weighing around 25 gram were fasted for 20 h and had free access to drinking water. Test compounds were administered to the animals by subcutaneous route 30 min before they were given a test meal by oral gavage. The test meal consisted of 0.3 ml of a chocolate nutridrink solution (1.0 kcal/ml) containing phenol red marker (5 mg/ml). Fifteen min after administration of the meal, the mice were sacrificed by CO2 gas inhalation. The phenol red content remaining in the stomach (extracted from the stomach with NaOH) was determined at 557 nm in a spectrophotometer and expressed as extinction units. Small intestinal propulsion was determined as the distance traveled by the phenol red marker through the intestine and expressed as a percentage of total small intestinal length (from the pylorus to the ileo-cecal junction).
The lowest dose that was active for each parameter was noted as the lowest active dose (LAD). Table 12 discloses LAD values.

## CN(C)CCC[C@@]1(O)c2ccccc2CCC[C@@H]1c1cccc(Cl)c1 (relative stereo)
[1]
  pEC50: 8.0
[2]; active when >60% of animals had phenol red front beyond 85% of small intestinal length
  LAD (mg/kg) Small intestinal propulsion: >10 mg/kg
[2]; stomach content 15 min after meal, active when >60% of animals below 0.9 extinction units
  LAD (mg/kg) Gastric emptying: >10 mg/kg
